These are yes or no findings as the source states them, for the method shown. In cells and extracts the contact can be indirect. These calls come from enrichment with a bait or labelling near it, and not all partners need be listed. Sequences can lack the tags named with a protein.

Results on three molecules are retold here after doi:10.1101/2022.05.11.491457.

In experiment [1] the target is T1, ALK1-YFP (35S:ALK1-YFP) (Arabidopsis thaliana) (UniProt Q9M8T0).
T1 sequence: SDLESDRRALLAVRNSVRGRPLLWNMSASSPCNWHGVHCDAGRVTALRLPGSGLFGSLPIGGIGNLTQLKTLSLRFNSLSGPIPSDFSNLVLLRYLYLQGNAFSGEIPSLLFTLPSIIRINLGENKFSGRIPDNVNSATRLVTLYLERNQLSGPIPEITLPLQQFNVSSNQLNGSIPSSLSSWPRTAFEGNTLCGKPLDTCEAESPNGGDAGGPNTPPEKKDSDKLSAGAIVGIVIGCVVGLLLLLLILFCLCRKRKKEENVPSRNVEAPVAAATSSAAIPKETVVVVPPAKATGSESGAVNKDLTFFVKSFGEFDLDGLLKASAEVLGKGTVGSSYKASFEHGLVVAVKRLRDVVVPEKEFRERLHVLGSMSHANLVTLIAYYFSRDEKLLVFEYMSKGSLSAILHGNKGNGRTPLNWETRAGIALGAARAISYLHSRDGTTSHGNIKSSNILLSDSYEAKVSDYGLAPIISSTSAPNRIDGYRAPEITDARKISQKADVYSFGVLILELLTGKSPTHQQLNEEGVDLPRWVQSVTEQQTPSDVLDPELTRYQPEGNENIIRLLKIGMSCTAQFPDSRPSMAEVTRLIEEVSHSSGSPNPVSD
Description: affinity purification with mass spectrometry.

In experiment [2] the target is T2, ABCG36-GFP (PEN3:PEN3-GFP), Arabidopsis roots (Arabidopsis thaliana) (UniProt Q9XIE2).
T2 sequence: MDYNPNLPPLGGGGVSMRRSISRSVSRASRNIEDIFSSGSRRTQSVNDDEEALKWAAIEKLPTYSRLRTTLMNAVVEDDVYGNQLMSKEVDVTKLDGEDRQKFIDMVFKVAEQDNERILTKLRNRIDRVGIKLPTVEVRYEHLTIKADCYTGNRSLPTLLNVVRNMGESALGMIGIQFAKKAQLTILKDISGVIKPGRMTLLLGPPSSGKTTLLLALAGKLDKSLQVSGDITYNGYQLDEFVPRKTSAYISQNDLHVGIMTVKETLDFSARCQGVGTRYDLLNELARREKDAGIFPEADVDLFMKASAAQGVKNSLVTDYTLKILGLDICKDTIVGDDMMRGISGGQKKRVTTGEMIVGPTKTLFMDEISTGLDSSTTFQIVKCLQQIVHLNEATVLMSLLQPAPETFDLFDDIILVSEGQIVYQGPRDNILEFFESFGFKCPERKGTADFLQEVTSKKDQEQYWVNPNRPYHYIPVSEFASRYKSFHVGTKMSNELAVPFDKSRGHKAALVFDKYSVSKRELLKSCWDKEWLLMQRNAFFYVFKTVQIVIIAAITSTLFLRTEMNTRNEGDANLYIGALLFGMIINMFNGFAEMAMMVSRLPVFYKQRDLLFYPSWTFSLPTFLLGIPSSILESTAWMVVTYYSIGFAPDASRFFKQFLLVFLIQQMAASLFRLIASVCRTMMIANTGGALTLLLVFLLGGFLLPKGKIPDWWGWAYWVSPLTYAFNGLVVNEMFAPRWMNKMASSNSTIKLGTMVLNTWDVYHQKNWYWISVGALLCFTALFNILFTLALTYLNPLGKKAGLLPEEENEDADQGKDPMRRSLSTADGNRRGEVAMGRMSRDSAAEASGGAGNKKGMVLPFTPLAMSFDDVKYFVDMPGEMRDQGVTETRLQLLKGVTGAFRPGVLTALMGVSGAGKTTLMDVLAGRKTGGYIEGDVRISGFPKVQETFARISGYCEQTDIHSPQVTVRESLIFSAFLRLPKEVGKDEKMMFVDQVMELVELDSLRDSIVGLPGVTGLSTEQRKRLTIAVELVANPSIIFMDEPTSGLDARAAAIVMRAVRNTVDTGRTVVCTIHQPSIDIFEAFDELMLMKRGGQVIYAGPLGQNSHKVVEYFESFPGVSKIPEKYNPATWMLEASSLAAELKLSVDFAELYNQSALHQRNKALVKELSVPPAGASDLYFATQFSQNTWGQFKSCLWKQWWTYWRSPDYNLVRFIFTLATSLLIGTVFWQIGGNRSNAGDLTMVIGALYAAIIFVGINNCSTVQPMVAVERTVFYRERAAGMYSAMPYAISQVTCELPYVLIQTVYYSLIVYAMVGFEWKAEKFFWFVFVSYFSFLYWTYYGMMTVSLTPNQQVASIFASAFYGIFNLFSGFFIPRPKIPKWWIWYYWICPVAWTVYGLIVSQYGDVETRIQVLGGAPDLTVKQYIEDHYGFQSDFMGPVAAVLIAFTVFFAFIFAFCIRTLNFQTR
Description: affinity purification with mass spectrometry.

B1: ABCG40/PDR12, endogenous (protein, UniProt Q9M9E1 1-1423)
chain: MEGTSFHQASNSMRRNSSVWKKDSGREIFSRSSREEDDEEALRWAALEKLPTFDRLRKGILTASHAGGPINEIDIQKLGFQDTKKLLERLIKVGDDEHEKLLWKLKKRIDRVGIDLPTIEVRFDHLKVEAEVHVGGRALPTFVNFISNFADKFLNTLHLVPNRKKKFTILNDVSGIVKPGRMALLLGPPSSGKTTLLLALAGKLDQELKQTGRVTYNGHGMNEFVPQRTAAYIGQNDVHIGEMTVRETFAYAARFQGVGSRYDMLTELARREKEANIKPDPDIDIFMKAMSTAGEKTNVMTDYILKILGLEVCADTMVGDDMLRGISGGQKKRVTTGEMLVGPSRALFMDEISTGLDSSTTYQIVNSLRNYVHIFNGTALISLLQPAPETFNLFDDIILIAEGEIIYEGPRDHVVEFFETMGFKCPPRKGVADFLQEVTSKKDQMQYWARRDEPYRFIRVREFAEAFQSFHVGRRIGDELALPFDKTKSHPAALTTKKYGVGIKELVKTSFSREYLLMKRNSFVYYFKFGQLLVMAFLTMTLFFRTEMQKKTEVDGSLYTGALFFILMMLMFNGMSELSMTIAKLPVFYKQRDLLFYPAWVYSLPPWLLKIPISFMEAALTTFITYYVIGFDPNVGRLFKQYILLVLMNQMASALFKMVAALGRNMIVANTFGAFAMLVFFALGGVVLSRDDIKKWWIWGYWISPIMYGQNAILANEFFGHSWSRAVENSSETLGVTFLKSRGFLPHAYWYWIGTGALLGFVVLFNFGFTLALTFLNSLGKPQAVIAEEPASDETELQSARSEGVVEAGANKKRGMVLPFEPHSITFDNVVYSVDMPQEMIEQGTQEDRLVLLKGVNGAFRPGVLTALMGVSGAGKTTLMDVLAGRKTGGYIDGNITISGYPKNQQTFARISGYCEQTDIHSPHVTVYESLVYSAWLRLPKEVDKNKRKIFIEEVMELVELTPLRQALVGLPGESGLSTEQRKRLTIAVELVANPSIIFMDEPTSGLDARAAAIVMRTVRNTVDTGRTVVCTIHQPSIDIFEAFDELFLLKRGGEEIYVGPLGHESTHLINYFESIQGINKITEGYNPATWMLEVSTTSQEAALGVDFAQVYKNSELYKRNKELIKELSQPAPGSKDLYFPTQYSQSFLTQCMASLWKQHWSYWRNPPYTAVRFLFTIGIALMFGTMFWDLGGKTKTRQDLSNAMGSMYTAVLFLGLQNAASVQPVVNVERTVFYREQAAGMYSAMPYAFAQVFIEIPYVLVQAIVYGLIVYAMIGFEWTAVKFFWYLFFMYGSFLTFTFYGMMAVAMTPNHHIASVVSSAFYGIWNLFSGFLIPRPSMPVWWEWYYWLCPVAWTLYGLIASQFGDITEPMADSNMSVKQFIREFYGYREGFLGVVAAMNVIFPLLFAVIFAIGIKSFNFQKR
Turning to B1, the binding entry in experiment [1] is “binds”.

B2: Auxin-induced LRR Kinase1 (ALK1/QSK1/KIN7), At3g02880, endogenous (receptor, UniProt Q9M8T0 24-627)
chain: T1 sequence
As to B2, the binding entry in experiment [2] was “binds”.

B3: ABCG34/PDR6, endogenous (protein, UniProt Q7PC87 1-1453)
chain: MLGRDEDLVRTMSGRGSLGSTSHRSLAGAASKSFRDVFAPPTDDVFGRSDRREEDDVELRWAALERLPTYDRLRKGMLPQTMVNGKIGLEDVDVTNLAPKEKKHLMEMILKFVEEDNEKFLRRLRERTDRVGIEVPKIEVRYENLSVEGDVRSASRALPTLFNVTLNTIESILGLFHLLPSKKRKIEILKDISGIIKPSRMTLLLGPPSSGKTTLLQALAGKLDDTLQMSGRITYCGHEFREFVPQKTCAYISQHDLHFGEMTVRESLDFSGRCLGVGTRYQLLTELSRREREAGIKPDPEIDAFMKSIAISGQETSLVTDYVLKLLGLDICADTLVGDVMRRGISGGQRKRLTTGEMLVGPATALFMDEISTGLDSSTTFQICKFMRQLVHIADVTMVISLLQPAPETFELFDDIILLSEGQIVYQGSRDNVLEFFEYMGFKCPERKGIADFLQEVTSKKDQEQYWNRREHPYSYVSVHDFSSGFNSFHAGQQLASEFRVPYDKAKTHPAALVTQKYGISNKDLFKACFDREWLLMKRNSFVYVFKTVQITIMSLIAMTVYFRTEMHVGTVQDGQKFYGALFFSLINLMFNGMAELAFTVMRLPVFFKQRDFLFYPPWAFALPGFLLKIPLSLIESVIWIALTYYTIGFAPSAARFFRQLLAYFCVNQMALSLFRFLGALGRTEVIANSGGTLALLVVFVLGGFIISKDDIPSWLTWCYYTSPMMYGQTALVINEFLDERWGSPNNDTRINAKTVGEVLLKSRGFFTEPYWFWICIGALLGFTVLFNFCYIIALMYLNPLGNSKATTVVEEGKDKHKGSHSGTGGSVVELTSTSSHGPKKGMVLPFQPLSLAFNNVNYYVDMPAEMKAQGVEGDRLQLLRDVGGAFRPGVLTALVGVSGAGKTTLMDVLAGRKTGGYVEGSINISGYPKNQATFARVSGYCEQNDIHSPHVTVYESLIYSAWLRLSADIDTKTREMFVEEVMELVELKPLRNSIVGLPGVDGLSTEQRKRLTIAVELVANPSIIFMDEPTSGLDARAAAIVMRTVRNTVDTGRTVVCTIHQPSIDIFESFDELLLMKRGGQVIYAGTLGHHSQKLVEYFEAIEGVPKIKDGYNPATWMLDVTTPSMESQMSVDFAQIFVNSSVNRRNQELIKELSTPPPGSNDLYFRTKYAQPFSTQTKACFWKMYWSNWRYPQYNAIRFLMTVVIGVLFGLLFWQTGTKIEKEQDLNNFFGAMYAAVLFLGATNAATVQPAVAIERTVFYREKAAGMYSAIPYAISQVAVEIMYNTIQTGVYTLILYSMIGYDWTVVKFFWFYYYMLTCFVYFTLYGMMLVALTPNYQIAGICLSFFLSFWNLFSGFLIPRPQIPIWWRWYYWASPVAWTLYGIITSQVGDRDSIVHITGVGDMSLKTLLKNGFGFDYDFLPVVAVVHIAWILIFLFAFAYGIKFLNFQRR
Turning to B3, the binding result in experiment [1] is “binds”.
